PubChem BioAssay AID1259264 – Sanger Institute | 2017
Purpose: 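Kinases needed for CL40 growth and those that boost anti-cancer drug killing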 (primary screen). Cells: CL40 human colorectal cancer cells. Reagents: siRNA pool against human genes. Challenge: DMSO, or an anchor drug: BYL719 at 1 µM, cetuximab at 5 µg/ml, or trametinib at 10 nM. Detection: 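Replicate-mean viability versus a non-targeting pool, robust z-score from control wells, and mean synergy with BYL719 1 µM, cetuximab 5 µg/ml or trametinib 10 nM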. Reading the numbers: robust z-score, siRNA alone: higher = more viable cells. Call rule: 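a gene counts as essential when knock-down without drug gives a robust z-score below -3, meaning fewer cells; synergy scores play no part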. Calls: active = essential (lowers viability alone); inactive = not essential.
Here is a random part of 794 deposited reagents. Of all reagents, 15 (1.9%) are marked active. 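Calls rest on knock-down alone at z-score below -3; synergy scores with the three drugs do not decide them.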 A number with no mark means an inactive call. Further read-outs or replicates are left out here. No sequences are given here. Not given: the amount of reagent, the time to read-out.

no.	Target gene	robust z-score, siRNA alone
1	PCBP1	0.539
2	IRAK4	-0.922
3	ACVR1B	0.443
4	MAPK6	0.539
5	CERK	0.539
6	PRKCB	0.539
7	RAF1	-1.51
8	FGFR4	-0.0716
9	SPHK2	-0.346
10	MYO3A	-0.648
11	TAF1	0.539
12	AURKB	0.27
13	TSSK3	-1.88

No new results follow: an excerpt of the list.
no.	Target gene	robust z-score, siRNA alone
10	MYO3A	-0.648
11	TAF1	0.539

The results go on:
no.	Target gene	robust z-score, siRNA alone
14	SRC	0.539
15	PRKD1	0.539
16	KRAS	-4.89 (active)
17	ACO1	0.539
18	TCF12	0.539
19	HASPIN	-0.741
20	FLT3	-0.619
